Results published in ChEMBL document CHEMBL4316593 (Eur J Med Chem, 2019).
Further values from the same series stand in other lists.

What was measured:
Type in all cases: cell-based
Conditions in all cases: U-87MG ATCC
[1] = Inhibition of RTK/PI3K/AKT/mTOR signaling in human U87 cells assessed as up regulation of DCTPP1 gene expression at cytotoxic IC50 measured after 48 hrs relative to control
[2] = Inhibition of RTK/PI3K/AKT/mTOR signaling in human U87 cells assessed as down regulation of ARIH1 gene expression at cytotoxic IC50 measured after 48 hrs relative to control
[3] = Inhibition of RTK/PI3K/AKT/mTOR signaling in human U87 cells assessed as down regulation of HECW1 gene expression at cytotoxic IC50 measured after 48 hrs relative to control
[4] = Inhibition of RTK/PI3K/AKT/mTOR signaling in human U87 cells assessed as down regulation of CYR61 gene expression at cytotoxic IC50 measured after 48 hrs relative to control
[5] = Inhibition of RTK/PI3K/AKT/mTOR signaling in human U87 cells assessed as up regulation of ER degradation enhancing alpha-mannosidase like protein 1 gene expression at cytotoxic IC50 measured after 48 hrs relative to control
[6] = Inhibition of RTK/PI3K/AKT/mTOR signaling in human U87 cells assessed as up regulation of Jun dimerization protein 2 gene expression at cytotoxic IC50 measured after 48 hrs relative to control
[7] = Inhibition of RTK/PI3K/AKT/mTOR signaling in human U87 cells assessed as up regulation of FRAS1 gene expression at cytotoxic IC50 measured after 48 hrs relative to control
[8] = Inhibition of RTK/PI3K/AKT/mTOR signaling in human U87 cells assessed as down regulation of PANK3 gene expression at cytotoxic IC50 measured after 48 hrs relative to control
[9] = Inhibition of RTK/PI3K/AKT/mTOR signaling in human U87 cells assessed as up regulation of HAS3 gene expression at cytotoxic IC50 measured after 48 hrs relative to control
[10] = Inhibition of RTK/PI3K/AKT/mTOR signaling in human U87 cells assessed as up regulation of signal sequence receptor subunit 1 gene expression at cytotoxic IC50 measured after 48 hrs relative to control
[11] = Inhibition of RTK/PI3K/AKT/mTOR signaling in human U87 cells assessed as down regulation of DDIAS gene expression at cytotoxic IC50 measured after 48 hrs relative to control
[12] = Inhibition of RTK/PI3K/AKT/mTOR signaling in human U87 cells assessed as down regulation of SFPQ gene expression at cytotoxic IC50 measured after 48 hrs relative to control
[13] = Inhibition of RTK/PI3K/AKT/mTOR signaling in human U87 cells assessed as down regulation of ZNF557 gene expression at cytotoxic IC50 measured after 48 hrs relative to control
[14] = Inhibition of RTK/PI3K/AKT/mTOR signaling in human U87 cells assessed as up regulation of tripartite motif containing 47 gene expression at cytotoxic IC50 measured after 48 hrs relative to control
[15] = Inhibition of RTK/PI3K/AKT/mTOR signaling in human U87 cells assessed as down regulation of PSMD13 gene expression at cytotoxic IC50 measured after 48 hrs relative to control
[16] = Inhibition of RTK/PI3K/AKT/mTOR signaling in human U87 cells assessed as down regulation of ANKFY1 gene expression at cytotoxic IC50 measured after 48 hrs relative to control
[17] = Inhibition of RTK/PI3K/AKT/mTOR signaling in human U87 cells assessed as up regulation of SAT1 gene expression at cytotoxic IC50 measured after 48 hrs relative to control
[18] = Inhibition of RTK/PI3K/AKT/mTOR signaling in human U87 cells assessed as down regulation of C7orf50 gene expression at cytotoxic IC50 measured after 48 hrs relative to control
[19] = Inhibition of RTK/PI3K/AKT/mTOR signaling in human U87 cells assessed as up regulation of ATP2A2 gene expression at cytotoxic IC50 measured after 48 hrs relative to control
[20] = Inhibition of RTK/PI3K/AKT/mTOR signaling in human U87 cells assessed as up regulation of dimethylarginine dimethylaminohydrolase 2 gene expression at cytotoxic IC50 measured after 48 hrs relative to control
[21] = Inhibition of RTK/PI3K/AKT/mTOR signaling in human U87 cells assessed as down regulation of DHCR24 gene expression at cytotoxic IC50 measured after 48 hrs relative to control
[22] = Inhibition of RTK/PI3K/AKT/mTOR signaling in human U87 cells assessed as up regulation of eukaryotic translation initiation factor 4 gamma 3 gene expression at cytotoxic IC50 measured after 48 hrs relative to control
[23] = Inhibition of RTK/PI3K/AKT/mTOR signaling in human U87 cells assessed as up regulation of SNHG16 gene expression at cytotoxic IC50 measured after 48 hrs relative to control
[24] = Inhibition of RTK/PI3K/AKT/mTOR signaling in human U87 cells assessed as up regulation of tripartite motif containing 72 gene expression at cytotoxic IC50 measured after 48 hrs relative to control
[25] = Inhibition of RTK/PI3K/AKT/mTOR signaling in human U87 cells assessed as up regulation of solute carrier family 29 member 4 gene expression at cytotoxic IC50 measured after 48 hrs relative to control
[26] = Inhibition of RTK/PI3K/AKT/mTOR signaling in human U87 cells assessed as up regulation of PLXNA3 gene expression at cytotoxic IC50 measured after 48 hrs relative to control
[27] = Inhibition of RTK/PI3K/AKT/mTOR signaling in human U87 cells assessed as down regulation of ZBTB34 gene expression at cytotoxic IC50 measured after 48 hrs relative to control
[28] = Inhibition of RTK/PI3K/AKT/mTOR signaling in human U87 cells assessed as down regulation of FKBP3 gene expression at cytotoxic IC50 measured after 48 hrs relative to control
[29] = Inhibition of RTK/PI3K/AKT/mTOR signaling in human U87 cells assessed as up regulation of paralemmin gene expression at cytotoxic IC50 measured after 48 hrs relative to control
[30] = Inhibition of RTK/PI3K/AKT/mTOR signaling in human U87 cells assessed as down regulation of SEC24C gene expression at cytotoxic IC50 measured after 48 hrs relative to control
[31] = Inhibition of RTK/PI3K/AKT/mTOR signaling in human U87 cells assessed as down regulation of FGFRL1 gene expression at cytotoxic IC50 measured after 48 hrs relative to control
[32] = Inhibition of RTK/PI3K/AKT/mTOR signaling in human U87 cells assessed as up regulation of RAB3B gene expression at cytotoxic IC50 measured after 48 hrs relative to control

In the case of CC(=O)C(=NNc1ccccc1C#N)C(C)=O, the log2FC [1] is reported as 0.61, the log2FC [2] is reported as -0.609 and the log2FC [3] is reported as -1.49. For the same compound, the log2FC [4] was -1.97, the log2FC [5] was 0.779 and the log2FC [6] was 1.46. For the same compound, the log2FC [7] was 1.73, the log2FC [8] was -0.492 and the log2FC [9] was 1.69. It also gave a log2FC [10] of 0.738, a log2FC [11] of -2.02 and a log2FC [12] of -0.521. For the same compound, the log2FC [13] was -1.32, the log2FC [14] was 1.1 and the log2FC [15] was -0.432. The log2FC [16] was -0.558, the log2FC [17] was 0.36 and the log2FC [18] was -0.883. It also gave a log2FC [19] of 0.447, a log2FC [20] of 0.912 and a log2FC [21] of -0.483. For the same compound, the log2FC [22] was 0.853, the log2FC [23] was 0.616 and the log2FC [24] was 0.924. It also gave a log2FC [25] of 1.36, a log2FC [26] of 0.534 and a log2FC [27] of -0.906. The log2FC [28] was -1.28, the log2FC [29] was 1.24 and the log2FC [30] was -0.475. It also gave a log2FC [31] of -0.51 and a log2FC [32] of 0.632.
